Measured values taken from PMC11392818.
These are yes or no findings as the source states them, for the method shown. In cells and extracts the contact can be indirect. Some results given as binding are weak or reduced against the parent protein; the word gives no strength.

Chains of the proteins cited; added tags and fusions are not shown.
UniProt Q8N884: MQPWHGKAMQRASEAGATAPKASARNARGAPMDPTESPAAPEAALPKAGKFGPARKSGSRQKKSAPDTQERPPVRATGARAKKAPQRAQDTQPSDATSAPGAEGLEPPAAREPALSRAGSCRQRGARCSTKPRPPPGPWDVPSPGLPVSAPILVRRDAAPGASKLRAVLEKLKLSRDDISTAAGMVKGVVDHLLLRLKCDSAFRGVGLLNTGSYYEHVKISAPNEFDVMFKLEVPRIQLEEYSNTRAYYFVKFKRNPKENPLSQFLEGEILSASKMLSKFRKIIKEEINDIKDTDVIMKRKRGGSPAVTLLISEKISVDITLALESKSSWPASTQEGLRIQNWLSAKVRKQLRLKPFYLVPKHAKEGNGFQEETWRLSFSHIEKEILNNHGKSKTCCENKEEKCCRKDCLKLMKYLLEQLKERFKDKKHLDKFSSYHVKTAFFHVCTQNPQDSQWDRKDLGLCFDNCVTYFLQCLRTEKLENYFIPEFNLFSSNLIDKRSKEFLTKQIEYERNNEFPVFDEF
UniProt P51532: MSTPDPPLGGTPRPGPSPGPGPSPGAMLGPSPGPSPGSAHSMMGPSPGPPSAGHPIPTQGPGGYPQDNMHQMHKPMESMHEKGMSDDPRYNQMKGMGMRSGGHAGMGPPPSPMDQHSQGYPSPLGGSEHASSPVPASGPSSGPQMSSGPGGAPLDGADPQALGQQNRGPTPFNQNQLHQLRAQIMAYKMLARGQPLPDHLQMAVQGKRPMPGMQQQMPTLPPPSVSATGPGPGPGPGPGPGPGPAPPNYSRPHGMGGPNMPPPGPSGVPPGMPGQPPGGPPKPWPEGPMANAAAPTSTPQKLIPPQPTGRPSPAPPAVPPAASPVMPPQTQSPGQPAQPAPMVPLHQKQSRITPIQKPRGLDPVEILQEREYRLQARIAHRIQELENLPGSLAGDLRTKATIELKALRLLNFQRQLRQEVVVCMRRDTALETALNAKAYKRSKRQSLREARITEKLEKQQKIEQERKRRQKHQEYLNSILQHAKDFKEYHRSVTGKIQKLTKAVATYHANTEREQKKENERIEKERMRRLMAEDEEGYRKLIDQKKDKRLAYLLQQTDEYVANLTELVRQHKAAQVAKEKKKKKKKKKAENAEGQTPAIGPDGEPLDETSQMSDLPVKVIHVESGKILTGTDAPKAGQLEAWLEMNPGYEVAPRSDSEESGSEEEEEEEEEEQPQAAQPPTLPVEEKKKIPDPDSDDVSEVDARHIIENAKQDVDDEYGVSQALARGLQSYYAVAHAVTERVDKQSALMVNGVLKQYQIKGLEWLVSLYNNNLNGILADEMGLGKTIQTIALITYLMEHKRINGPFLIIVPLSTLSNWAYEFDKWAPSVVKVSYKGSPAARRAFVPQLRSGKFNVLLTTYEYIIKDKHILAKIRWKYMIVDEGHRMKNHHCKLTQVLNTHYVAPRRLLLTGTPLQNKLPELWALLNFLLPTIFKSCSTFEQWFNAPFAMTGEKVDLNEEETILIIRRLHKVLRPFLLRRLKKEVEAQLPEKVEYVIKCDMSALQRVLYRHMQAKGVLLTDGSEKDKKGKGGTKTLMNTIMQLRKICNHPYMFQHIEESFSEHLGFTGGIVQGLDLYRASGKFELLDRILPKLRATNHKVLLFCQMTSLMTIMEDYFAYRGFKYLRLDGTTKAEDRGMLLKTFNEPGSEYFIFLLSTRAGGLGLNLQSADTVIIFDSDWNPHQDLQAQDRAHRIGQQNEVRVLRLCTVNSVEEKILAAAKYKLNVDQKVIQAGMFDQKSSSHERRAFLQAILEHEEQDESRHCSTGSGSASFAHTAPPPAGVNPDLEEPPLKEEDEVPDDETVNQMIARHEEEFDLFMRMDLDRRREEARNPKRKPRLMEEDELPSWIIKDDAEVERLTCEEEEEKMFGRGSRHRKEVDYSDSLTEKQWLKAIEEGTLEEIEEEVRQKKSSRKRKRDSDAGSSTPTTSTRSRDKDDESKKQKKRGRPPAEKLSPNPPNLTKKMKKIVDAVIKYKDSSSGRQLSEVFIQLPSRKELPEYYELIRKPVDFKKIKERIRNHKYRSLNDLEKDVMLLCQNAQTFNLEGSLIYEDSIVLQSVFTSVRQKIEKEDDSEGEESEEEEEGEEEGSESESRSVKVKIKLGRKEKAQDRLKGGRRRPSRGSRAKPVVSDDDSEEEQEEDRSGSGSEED
UniProt Q8TAQ2: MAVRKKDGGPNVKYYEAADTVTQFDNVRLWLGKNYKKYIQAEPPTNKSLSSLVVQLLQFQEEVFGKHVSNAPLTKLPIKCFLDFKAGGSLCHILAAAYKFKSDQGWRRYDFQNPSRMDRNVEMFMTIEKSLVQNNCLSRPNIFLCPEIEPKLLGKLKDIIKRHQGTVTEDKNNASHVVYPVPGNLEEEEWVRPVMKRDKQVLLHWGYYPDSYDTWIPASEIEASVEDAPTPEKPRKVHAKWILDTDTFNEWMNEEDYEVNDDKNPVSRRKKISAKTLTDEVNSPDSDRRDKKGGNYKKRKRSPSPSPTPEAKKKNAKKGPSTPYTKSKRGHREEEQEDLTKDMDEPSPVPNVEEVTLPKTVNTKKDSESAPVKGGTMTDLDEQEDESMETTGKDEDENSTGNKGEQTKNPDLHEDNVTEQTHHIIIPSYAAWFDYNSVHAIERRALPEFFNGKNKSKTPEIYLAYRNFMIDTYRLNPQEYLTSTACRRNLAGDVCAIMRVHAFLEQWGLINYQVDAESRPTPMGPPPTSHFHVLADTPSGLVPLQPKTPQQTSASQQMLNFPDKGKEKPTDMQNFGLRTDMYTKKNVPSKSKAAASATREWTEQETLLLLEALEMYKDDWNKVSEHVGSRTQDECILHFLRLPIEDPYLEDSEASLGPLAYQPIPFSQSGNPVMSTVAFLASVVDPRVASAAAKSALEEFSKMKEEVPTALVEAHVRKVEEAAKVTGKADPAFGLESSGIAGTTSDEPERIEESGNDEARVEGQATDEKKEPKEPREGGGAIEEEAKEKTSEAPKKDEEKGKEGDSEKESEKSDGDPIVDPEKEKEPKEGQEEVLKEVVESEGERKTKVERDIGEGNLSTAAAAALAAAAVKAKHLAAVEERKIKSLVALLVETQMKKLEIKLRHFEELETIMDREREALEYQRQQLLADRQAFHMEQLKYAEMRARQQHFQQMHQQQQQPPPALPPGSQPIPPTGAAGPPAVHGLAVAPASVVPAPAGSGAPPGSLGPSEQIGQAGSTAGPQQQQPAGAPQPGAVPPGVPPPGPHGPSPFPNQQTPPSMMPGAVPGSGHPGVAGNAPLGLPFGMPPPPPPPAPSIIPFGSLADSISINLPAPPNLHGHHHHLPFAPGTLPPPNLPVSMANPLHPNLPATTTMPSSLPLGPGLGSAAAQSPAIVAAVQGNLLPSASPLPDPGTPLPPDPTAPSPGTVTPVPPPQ

Biological target: cGAS (cyclic GMP-AMP synthase) of HCT116 cells (human (endogenous in HCT116)) (UniProt Q8N884)
Experiment: co-IP; immunoprecipitation and immunoblot from HCT116 whole-cell lysates; nuclease benzonase in all buffers to minimize post-lysis DNA binding by cGAS

Substance	binding
SMARCA4 (from UniProt P51532 1-1647)	binds
SMARCC2 (from UniProt Q8TAQ2 1-1214)	binds
